These are yes or no findings as the source states them, for the method shown. In cells and extracts the contact can be indirect. Binding calls can cover weak binding; strength is not graded here. Where a sequence is shown, tags or fusion partners need not be part of it.
Biological target: YC–TON1 (TONNEAU1 fused to the C-terminal half of YFP)
Assay: split reporter; BiFC: YN and YC fusions transiently co-expressed in N. benthamiana leaves by Agrobacterium infiltration; YFP fluorescence by confocal imaging with identical laser settings

binding: binds
B1: YN–TRM1 (TON1 RECRUITMENT MOTIF1 fused to the N-terminal half of YFP) (protein, UniProt Q9S823 1-905)
chain: MSAKLLYNLSDENPNLNKQFGCMNGIFQVFYRQHCPATPVTVSGGAEKSLPPGERRGSVGETNMESDKETERSSTKKKKSAAKEKHRVSFESSSRPSFSSSPRSSSFSSAEVSTTASQFDQPGENLIREQPNGGLMMPYDLKELVKGSINREIRTRGEEASFTQQQQPISARSSMLLLKESSLRSPCRSSNEWNEGRGAAMKFKESHRLSYDEREMRNNGFRVGSKLKETPRLSLDSRSNSFRSPRADAARSSCPEEPATMTHRRSSSSVVAKLMGLEVIADNSDTEQRRENRFCDSPRPMSRVEPTALQRSRSVDSIKRIPASAASKFPMEPAPWKQMKAGDSALTVYGEIQKRLTQLEFKKSGKDLRALKQILEAMEKTQQLIDESRDDGTLSTTTLMQRTHKPVSAATSPARNFKSSSIVVMKSAAPVSTSPLPQNVTLPNVKVGNSRQTRKVTSGKQNAMDLTPRPGLYKGQLDSTKSNSPKTVRSRQALAADAGSMTKSGRSQQHSVSPRTQPKKLGFEKQTRPTTPKSEPGKRQLGRQQTEVASPRRKQMIKPHSTLQQPDDRLSDARSDLRSLRSDSNISLGSNVDIEVTSRHRLERNCDFPEQHTPKQRSPDFGIKQDRPSLKPLKVTVEQPSPVSVLDAVFDEEDSPSPVRKISLSFKEEDALRSEESEWINKPTSFCRSVPFPQSNRGPMKPSSDHFECSPEEGADFKSGNHKYILEILLASGILRDLEYSMISFQLHQTRLPINPGLFFILEQNKASNVTLPDNKHRGRGFRQQQTNPTETIRRKLVFDTVNEILARKFTAEGCIKPRLIANPLKKLEKISKEEQLLQTLCSEIDRLQQNNSNCILEDDEEDIIWEDLQSQSMNLKEFEGETPGIVLDIERMIFRDLVNEVCFC

From PMC6322583
